Results published in JP2004097211A.
No constants are given. Whether binding was seen depends on the method and setting. Some entries that bind do so weakly or less than the wild type.

Target: 抗体41S−2の軽鎖
Experiment: ELISA screening of hybridomas

binding: binds
B1: i41−7完全抗体 (antibody, V domains shown)
VH: EIQLQQSGPELVRPGASVKVSCKASGYSFTNSIMYWVRQSHGKSLEWIGYIDPYNGGTSYNQKFKGKATLTVDKSSSTAFMHLNSLTSEDSAVYFCARFIVVVADVMDYWGQGTSVTVSS
VL: DIVMTQSHKFMSTSVGDRVSITCKASQDVSTAVAWYQQKPGQSPKLLIYWASTRHTEVPDRFTGSGSGTDYTLTISSVQAEDLALYYCQQHYNTPLTFGAGTKLELKR
